Laboratory results reported in US20250221957A1, “PS[…] AND THEIR USE FOR TREATING […] AND NE[…] DISORDERS” (Transcend Therapeutics, Inc., priority 2021, published 2025).

Test system: rats
Test: Open field test (OFT)
Assay type: in vivo, rat
Procedure: Data are mean +/− SEM. N=6 per group. * p<0.05; **p<0.01 vs. vehicle control group.
Method: Consecutive beam breaks and/or video-tracking of time spent in the center versus periphery of the open field are measured. Also measured are parameters such as distance traveled and ambulatory activity (horizontal and vertical) for the duration of the test session.
The open field test (OFT) capitalizes on a rodent's innate fear of open spaces to assess anxiety-like behavior. More time spent in the center of an open field reflects an anxiolytic (anti-anxiety) effect.

## CNC(C)C(=O)c1ccc2c(c1)OCO2 (centres unmarked) [methylone, 3,4-methylenedioxy-N-methylcathinone]
Methylone 5 mg/kg
  locomotor activity compared to vehicle: no effect
Methylone 15 or 30 mg/kg
  locomotor activity compared to vehicle: significant increase
